The results are deposited in PubChem (AID1159506; NCATS, 2015).

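Luminescence from an EWS-FLI1 target-promoter (NR0B1) reporter, set against a CMV-promoter reporter, two days after silencing single genes in TC32 Ewing sarcoma cells.
Each siRNA was applied at 20 nM.
A z-score of the log NR0B1-over-CMV signal, less the median of siRNAs with the same seed; more negative means a stronger specific loss of the NR0B1 reporter.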

The strongest results of the screen are mostly left out here.
Sequences are the guide (antisense) strand, without overhang.

| siRNA | target gene | seed-corrected z-score |
|---|---|---|
| `UUCUCAUCAAUCACAAUCC` | HERC2P3 | 0.0789 |
| `UUUUCCACUAUACUUAUAC` | PLEKHF2 | 0.5585 |
| `UGUACAUGAACAAACCUGC` | OR2M5 | -0.5024 |
| `UUCGUUUUUCCUGCUACUC` | SNX13 | 0.2636 |
| `AGACUUAUAGCGGUCUUCG` | PDPN | 1.137 |
| `AUAUUUAUAAGUGUCACAG` | ATP6V1G2 | -1.383 |
| `UUGGAGGUAUUAUUGAAGG` | ZNF691 | -0.4608 |
| `UGAGUCAUAAACAACUGUG` | AKAP10 | -0.4868 |
| `UAAAGUGUCUGCCUACAGC` | DEFB106A | 0.2941 |
| `AUAGUGGUCCGCAGGCUCU` | TRIM62 | -0.3664 |
| `UCAUUGGAGAGGAACUUCC` | CD22 | 0.5918 |
| `UGAUCUAAGAGCUGGGUAC` | EEF1DP6 | -0.4157 |
| `AAACUAACAGUGUGCUUGC` | NSMAF | 1.23 |
| `AGAGAUUUUAGUUAUUCAG` | ANAPC13 | 1.784 |
| `UUACAUUUGUCGUCGUUCC` | CD209 | 1.73 |
| `UGAUUCAGUAGUGCAAGGC` | LOC100288254 | 0.02107 |
| `UAUAUCUCCACUACCACAG` | C17orf75 | -0.3167 |
| `UUGGUGUGCGUCACGAAGC` | PISD | 0.4948 |
| `UACGAGAGAAGGAUGCAGG` | OR1I1 | 0.3806 |
| `UCACCGUCUGGAAAACCUC` | EHD3 | 0.062 |
| `AAAGUUUUGUCGAUUACGG` | SDHA | -0.03032 |
| `AGAGGUAAUAGAGGCCGUC` | LTB | -0.3129 |
| `UCGAGUCAAACCUCAACAG` | HMHB1 | 0.9192 |
| `AUGAUAUACAGAGCAGUCU` | OR10V1 | -0.647 |
| `ACAAUGGAGAUGGUCAGGC` | USH1C | -0.02975 |
| `UUCUCCAUGAAAUAGUAUC` | DNAJA4 | 0.6308 |
| `AUAGUAGUGGGUACAAAUC` | ENPP5 | 0.2024 |
| `UCAGUGUCUUGAAACAGGC` | CRNN | 0.1523 |
| `UUUCUAUCUAGUCGAGCCC` | C12orf29 | -0.5847 |
| `AUCCCGACUUUUGACAUCC` | FMN1 | -0.4078 |
| `AAAAGUUUGCGUACUUGGU` | ST3GAL3 | 0.2568 |
| `AUCGUAAAUAUCCAAGGGC` | TMEM132D | 0.05789 |
| `UCGGUAAAGAUCUAUAGGC` | TENM1 | 0.479 |
| `UUGGAAAUUACUGACCUCC` | MYADM | 1.131 |
| `AAAGACUUCACUUUGCUGA` | WDR77 | -0.1339 |
| `AUCGACUUCACGAUUUUCC` | RAB18 | 0.6818 |
| `UUGAGUUUUGCAGUGAUCC` | PFKP | -0.1717 |
| `UGAGCAGUUGGAAUGGACC` | MYOCD | 0.06049 |
| `UGUCUCUUUAUCCUUAUUC` | SDE2 | -0.3027 |
| `AUUGUUAUUUCCUCGAUCC` | DDX42 | -0.3764 |
| `AACGAUAUUCACCAUGUUG` | RSPH1 | 0.8099 |
| `UAUGGGUCCACGUUGUUCC` | CAPN1 | 1.804 |
| `AACCGGUAUGCAACAAUCC` | MDGA2 | -0.6426 |
| `UUGUAGAUAACACGUAACC` | LRBA | 0.5193 |
| `AUAGCAUCAUCCUCCAUGC` | SSH1 | -0.05918 |
| `UGGGCAUUGCUUCUUGACC` | SPRR4 | -0.8073 |
| `UUCACCUUCAUCUCGGUUG` | DCAF13 | 0.8551 |
| `UAUAUAUUACUCCCAGAUC` | SCCPDH | 1.493 |
| `UAUCCGGCAUCGUUGUUGC` | KLHL22 | 0.2833 |
| `UCAUUGAUCUCGAAGAUGU` | ACAA1 | -0.3547 |
| `UCGUCUUGCAAAUAAACCC` | PDPK1 | 0.1813 |
| `UAAAGUCAAAUAAGCCUCU` | DCN | 0.1904 |

The first 6 entries again:

With UUCUCAUCAAUCACAAUCC against HERC2P3 the assay gave seed-corrected z-score 0.0789.
With UUUUCCACUAUACUUAUAC against PLEKHF2 the assay gave seed-corrected z-score 0.5585.
With UGUACAUGAACAAACCUGC against OR2M5 the assay gave seed-corrected z-score -0.5024.
With UUCGUUUUUCCUGCUACUC against SNX13 the assay gave seed-corrected z-score 0.2636.
With AGACUUAUAGCGGUCUUCG against PDPN the assay gave seed-corrected z-score 1.137.
With AUAUUUAUAAGUGUCACAG against ATP6V1G2 the assay gave seed-corrected z-score -1.383.